From PubChem BioAssay AID2685 (National Center for Advancing Translational Sciences (NCATS), 2010)
Among all 320,000 compounds or so, about 2,100 (0.66%) were called active. This list was built around the results that the source calls inconclusive (neither active nor inactive); the mix of calls is not that of the screen. Calls come from the whole dose curve; as a rule, active = well fitted inhibition curve with a large enough effect in the signal ratio, with a control signal flat (not every such curve was filed as active); inconclusive = small, poorly fitted or top-dose-only effect, or effect the other way, or a change in a side signal; inactive = flat fitted curve, though single readings scatter; the % refers to the signal ratio. A potency beside an inconclusive call is a rough fit, not a confirmed value.

Test: qHTS Assay for Lipid Storage Modulators in Drosophila S3 Cells
Conditions: BODIPY lipid droplet fluorescence, 18-24 h, cells fed with added oleic acid; lipid storage change, negative = inhibition: at 46.1 µM (top of the series) unless noted
Outline: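 Drosophila S3 cells got compounds at several concentrations plus oleic acid (400 uM solution). Laser-scanning cytometry with 488 nm excitation read lipid droplets at 500-530 nm and cells at 575-640 nm. Percent activity was relative to 20 uM Triacsin C.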
% is set by controls: 0 for no effect and ±100 for the full control effect; potency is the fitted concentration of half-maximal effect.

SMILES	lipid storage change, negative = inhibition	Potency
Cc1ccc(NC(=O)C2CCN(c3cnccn3)CC2)cc1	inconclusive: 10.8%	
CCCCN(C(=O)/C=C/c1ccco1)c1c(N)n(CCC)c(=O)[nH]c1=O		inconclusive: 29.1 µM [falling, single point]
CCCCn1cnc2cc(C)c(C)cc21	inconclusive: -21.9% [at 9.22 µM]	
COc1ccc(C2/C(=C(/O)c3ccc(Br)cc3)C(=O)C(=O)N2C)cc1OC (stereo unspecified)	inconclusive: 36.1%	
N#Cc1ccc(S(=O)(=O)N2CCN(C(=O)C3CC(=O)N(c4ccc5c(c4)OCCO5)C3)CC2)cc1 (stereo unspecified)	inconclusive: 4.98%	
O=C(O)c1ccc(CSc2nnc(-c3ccco3)o2)cc1		active: 1.84 µM
CCCOc1ccc(C(CC(=O)O)NC(=O)c2sc3ccccc3c2Cl)cc1 (stereo unspecified)	inconclusive: 14%	
COC(=O)Nc1ccc(OC)c(OC)c1	inconclusive: 8.77%	
CCOC(=O)CC1=C(C(=O)OCC)C(c2ccc(C)o2)C(C#N)=C(N)O1 (stereo unspecified)		inconclusive: 20.6 µM [rising, partial curve, poor fit]
CN(Cc1ccccc1)C(=O)C1CCCN1S(=O)(=O)c1ccc(Cl)cc1 (stereo unspecified)		inconclusive: 14.6 µM [falling, partial curve, poor fit]
CC(=O)Nc1ccc(S(=O)(=O)NCCC(=O)N2CCc3ccccc32)cc1		inconclusive: 18.4 µM [activator, single point]
CO[C@H]1C=CO[C@@]2(C)Oc3c(C)c(O)c4c(O)c(c5c(nc6cc(C)ccn65)c4c3C2=O)NC(=O)C(C)=CC=C[C@H](C)[C@H](O)[C@@H](C)[C@@H](O)[C@@H](C)[C@H](OC(C)=O)[C@@H]1C		inconclusive: 1.84 µM [cytotoxic, partial curve]
CCN(CC(=O)NCc1cccs1)c1nnnn1-c1ccccc1	inconclusive: -16.5%	
CN(Cc1nccs1)C(=O)C1CCC(=O)N(CCCc2ccccc2)C1 (stereo unspecified)		inconclusive: 6.51 µM [falling, single point]
Clc1ccc(-c2noc(CSc3nnc(Cc4cccs4)n3-c3ccccc3)n2)cc1	inconclusive: 3.15%	
Cc1nnc(SCC(=O)NCc2cccs2)[nH]c1=O	inconclusive: -37.2%	
O=C(N/C(=C\c1cccnc1)c1nc2ccccc2[nH]1)c1cccc(Br)c1		inconclusive: 0.82 µM [activator, full curve, poor fit]
COc1cc(C(=O)N(C)CC2CCN(CCc3cccc(C(F)(F)F)c3)CC2)ccc1C	inconclusive: -129%	
Oc1ccc(C2Nc3cccc4cccc(c34)N2)c(O)c1	inconclusive: -15.6%	
O=C1c2cccc([N+](=O)[O-])c2C(=O)N1c1cccnc1	inactive	
O=C(COc1ccc(S(=O)(=O)N2CCCC2)cc1Cl)NCc1ccccn1		inconclusive: 20.6 µM [falling, partial curve]
O=C(c1cccc([N+](=O)[O-])c1)N1CCN(c2ccccn2)CC1	inconclusive: -2.81%	
CC1(C)CC(=O)C2=C(C1)Oc1nc3ccccc3cc1C2C(C#N)C#N (stereo unspecified)		inconclusive: 2.91 µM [falling, full curve]
COc1ccccc1OCCC(=O)OCC(=O)Nc1ccc(Br)cc1F	inconclusive: -2.54%	
O=C(Nc1ccc(Cl)cc1F)c1ccccc1Br	inconclusive: 18.6%	
Cc1cc(NC(=O)c2ccco2)no1		inconclusive: 4.11 µM [falling, single point]

Quoted at random: two records from the list
SMILES	lipid storage change, negative = inhibition	Potency
O=C(Nc1ccc(Cl)cc1F)c1ccccc1Br	inconclusive: 18.6%	
CN(Cc1nccs1)C(=O)C1CCC(=O)N(CCCc2ccccc2)C1 (stereo unspecified)		inconclusive: 6.51 µM [falling, single point]

Remaining list, next part

SMILES	lipid storage change, negative = inhibition	Potency
COc1ccc(C(=O)NCCCSC)cc1OC1CCN(C(C)C)CC1	inconclusive: 34.1%	
O=C(OC1CCOC1=O)c1ccccc1C(=O)c1ccc(Cl)c([N+](=O)[O-])c1 (stereo unspecified)		inconclusive: 0.517 µM [falling, full curve, poor fit]
O=C(OCC(=O)N1CCc2ccccc2C1)c1ccc(N2CCOCC2)c([N+](=O)[O-])c1	inconclusive: -20.4%	
CCOC(=O)Nc1cc(OC)c(OC)cc1Cc1nccc2cc(OC)c(OC)cc12		inconclusive: 0.92 µM [activator, partial curve]
O=C(NC1CCCCC1)C(c1ccc(F)cc1)N(C(=O)c1csnn1)C1CC1 (stereo unspecified)	inconclusive: 5.6%	
COCCNC(=O)CN(C(=O)CCC(=O)Nc1cc(C)on1)c1ccccc1C	inconclusive: -47.9%	
Cc1sc(NC(=O)c2ccco2)c(C(c2cccnc2)N2CCN(CCO)CC2)c1C (stereo unspecified)	inactive	
Cc1ccccc1-n1c(Cn2c(=O)sc3ccccc32)nnc1SCC(=O)Nc1nccs1	inconclusive: 8.26%	
CCc1nnc(NC(=O)CCc2ccccc2OC)s1	inconclusive: 208%	
Cc1ccc(S(=O)(=O)N2CCC(C(=O)NCCCN3CCOCC3)CC2)cc1C	inconclusive	
CCOC(=O)Cc1csc(SCC(=O)Nc2cc(Cl)ccc2Oc2ccccc2)n1		inconclusive: 6.51 µM [falling, single point]
Cc1cc(C)cc(N(C(=O)c2ccccn2)C(C(=O)NC2CCCCC2)c2ccncc2)c1 (stereo unspecified)		inconclusive: 6.51 µM [activator, partial curve, poor fit]
CC(SC#N)C(=O)C12CC3CC(CC(C3)C1)C2 (stereo unspecified)	inconclusive: -16.2%	
Cc1cc(NC(=O)c2ccc(N(C)S(=O)(=O)c3ccccc3)cc2)no1	inconclusive: -28.5%	
Cc1cc(C)c(-c2csc(NC(=O)c3n[nH]c(=O)c4ccccc34)n2)c(C)c1	inconclusive: -27.7%	
COc1ccc(NC(=O)CCNS(=O)(=O)c2cccc(C(C)=O)c2)cc1S(N)(=O)=O	inconclusive: 100%	
CC1CCC(NC(=O)C2c3ccccc3C(=O)N2Cc2cccs2)CC1 (stereo unspecified)	inconclusive: 47.9%	
COc1ccc(CNC2c3ccccc3-c3ccccc32)cc1OC		active: 3.66 µM
CCOC(=O)c1ccc(NC(=O)COc2cc3oc(=O)c(CC(C)O)c(C)c3cc2Cl)cc1 (stereo unspecified)	inconclusive: 13%	
CCOc1ccc(NC(=O)CSc2nc3ccccc3c(=O)n2CCNC(C)=O)cc1	inconclusive: 15.7%	
CC1(C)CC(=O)C(C(=O)/C=C/NCCc2ccccc2)C(=O)C1		inconclusive: 0.0046 µM [falling, full curve, poor fit]
CCCCn1c(=O)[nH]c(=O)c2c1nc(-c1cccc(OC)c1)n2C	inactive	
C1CCN=C(Nc2nc3c(s2)CCCC3)CC1	inconclusive: 16.2%	
Cc1ccc(C(=O)N2CCN(C)CC2)cc1S(=O)(=O)N1CCCCCC1	inconclusive: -29.7%	
COc1cc(C(=S)N2CCC(C)CC2)ccc1O		inconclusive: 4.61 µM [activator, partial curve, poor fit]
COc1ccccc1-c1nc(-c2ccccn2)no1	inconclusive: 1.35%	

SMILES	lipid storage change, negative = inhibition	Potency
Cc1cnc(C(=O)OCC(=O)c2ccc(-c3ccccc3)cc2)cn1	inconclusive: 155%	
CCC(=O)NS(=O)(=O)c1ccc(N=NN2CCCCC2)cc1	inconclusive: -15.4% [cytotoxic]	
CC(C)CCn1nnnc1C(c1ccc(N(C)C)cc1)N1CCN(C(=O)c2ccco2)CC1 (stereo unspecified)		inconclusive: 0.58 µM [activator, partial curve]
O=C1N/C(=C/c2ccco2)C(=O)N1Cc1ccccc1F		inconclusive: 3.26 µM [activator, partial curve]
O=C(c1ccco1)N(Cc1cc2ccccc2[nH]c1=O)CC1CCCO1 (stereo unspecified)	inconclusive: -1.39%	
CCC(C)n1c(SC(C)C#N)nc2ccccc2c1=O (stereo unspecified)	inconclusive: 17.9%	
O=C(CN1C2=NCCCN2c2ccccc21)c1ccc([N+](=O)[O-])cc1	inconclusive: -14.9%	
COCc1cc(=O)[nH]c(/N=C(\N)Nc2ccccc2C)n1		inconclusive: 2.31 µM [activator, single point]
O=C(COc1ccc(F)cc1)NCCN1CCCC1	inconclusive: -12%	
Cc1ccc(S(=O)(=O)N2CCN(C(=O)CCn3nc(C)c(C)c3C)CC2)cc1C		inconclusive: 29.1 µM [activator, single point]
Cc1ccccc1-n1nc2c(c1NC(=O)c1cc3ccccc3o1)CS(=O)(=O)C2	inconclusive	
Cc1ccc(N(Cc2ccccc2)C(=O)c2cccc(S(=O)(=O)N3CC(C)OC(C)C3)c2)cc1 (stereo unspecified)	inconclusive: 10.7%	
Cc1ccc2c(c1)CCCN2C(=O)c1cccs1	inconclusive: 18.9%	
CCOC(=O)CC1C(=O)NCCN1S(=O)(=O)c1ccc(NC(C)=O)cc1 (stereo unspecified)	inconclusive: -50.9% [at 0.00295 µM]	
COc1ccc(/C(C)=N/NS(=O)(=O)c2ccccc2)c(OC)c1	inconclusive: -4.87%	
CC(C)(C)c1ccc(OCC(=O)NNC(=O)Cc2cccs2)cc1	inconclusive: 41.5%	
Cc1cc(NC(=O)C(C)SCC(=O)Nc2ccccc2N2CCCC2)no1 (stereo unspecified)	inconclusive	
COc1ccc(OC)c(N2Cc3cc(C)c(C)cc3C2)c1		inconclusive: 11.6 µM [rising, partial curve, poor fit]
Oc1ccccc1-c1nc2ccccc2nc1-c1ccccc1	inconclusive: -6.82%	
CC1CCC(NC(=O)COC(=O)c2ccco2)CC1 (stereo unspecified)	inconclusive: 6.3%	
NC(=O)CC(NC(=O)Cc1ccc(Br)cc1)c1ccc(NCCc2ccccc2F)c([N+](=O)[O-])c1 (stereo unspecified)	inconclusive: 0.337%	
CCOC(=O)N1CCC(NC(=O)COc2cc(=O)n(C)c3ccccc23)CC1		inconclusive: 6.51 µM [activator, single point]
CCSc1nnc(NC(=O)[C@@H](NC(=O)c2cc(OC)cc(OC)c2)C(C)C)s1	inconclusive: 16.2%	
CC1CCN(C(=O)C2(NC(=O)Nc3cccc(F)c3)CCCCC2)CC1	inconclusive: -15.5%	

An excerpt of these results, as labelled records:
O=C(NC1CCCCC1)C(c1ccc(F)cc1)N(C(=O)c1csnn1)C1CC1 (stereo unspecified)
  lipid storage change, negative = inhibition: inconclusive: 5.6%
COCCNC(=O)CN(C(=O)CCC(=O)Nc1cc(C)on1)c1ccccc1C
  lipid storage change, negative = inhibition: inconclusive: -47.9%
